{"source": "paper PMC12716008", "about": "(Chemistry & Biodiversity, 2025)", "key": {"[1]": {"tested_on": "M. smegmatis biofilm formation", "experiment": "Mycobacterial biofilm inhibition, microtitre antibiofilm assay (MBIC)", "type": "cell-based, Mycobacterium smegmatis", "details": "biofilm selective index"}, "[2]": {"tested_on": "MRSA AH1263 or LAC biofilm formation", "experiment": "Staphylococcal biofilm inhibition, crystal violet microtitre test (MBIC)", "type": "cell-based, Staphylococcus aureus", "details": "biofilm selective index"}, "[3]": {"tested_on": "methicillin‐resistant S. aureus (MRSA) AH1263 or LAC", "experiment": "Antistaphylococcal activity, broth microdilution (MIC)", "type": "cell-based, Staphylococcus aureus", "details": "resistant (MRSA) versus susceptible (MSSA) strain, from MIC"}, "[4]": {"tested_on": "human monocyte (U937) cell line", "experiment": "Cytotoxicity, Presto Blue cell viability", "type": "cell-based", "details": "selective index, IC50 (U937)/MIC against Mycobacterium smegmatis", "protocol": "(§1) The human monocyte (U937) and African green monkey kidney (Vero) cell lines were used in this study to determine the cytotoxic potential of the quinoline derivatives. The cell lines were purchased from Separation Scientific SA (Pty) Ltd. (Johannesburg, South Africa) and maintained in Roswell Park Memorial Institute (RPMI) 1640 and Eagle's Minimal Essential Medium (EMEM), supplemented with 10% heat‐inactivated foetal bovine serum (FBS), 1% antibiotics (100 U/mL penicillin and 100 µg/mL streptomycin) and 1% antifungal agent (250 µg/mL amphotericin B) as previously described. The cells were cultured at 37°C, 5% CO2 in a humidified incubator to 80% confluency. Detachment was achieved by rinsing the cells with phosphate buffer saline followed by the addition of trypsin–EDTA (0.25% trypsin containing 0.01% EDTA). After 5 min, the reaction was inhibited through the addition of supplemented media.\n(§2) Cell viability was assessed through the method described by Lall et al., using Presto Blue as the viability reagent. The cells were seeded in a flat‐bottom 96‐well plate (100 µL) at a concentration of 1.0 × 10^6 cells/mL and allowed to adhere for 24 h. The samples were prepared in DMSO at a stock concentration of 20 mM, serially diluted in complete media and added to the plate at a final concentration range of 0.78–100 µM. Controls included a vehicle control (2% DMSO), an untreated cell control, a 0% control (no cells) and actinomycin D, as the positive control, at a final test concentration range of 3.9 × 10^−4 to 0.05 µg/mL. Cells were incubated for 72 h, followed by the addition of 20 µL of Presto Blue reagent to all the wells and an additional 2 h incubation. Cell viability was measured using a VICTOR Nivo Multimode Microplate Reader (PerkinElmer) at an excitation/emission wavelength of 540/590 nm.\n(§3) All results are presented as the mean ± standard deviation (where applicable) of experiments done in triplicate and in two or three independent experiments (as stated in each methods section). Descriptive analysis was used to directly compare and rank the compounds and derivatives based on their activity in the biological assays. Additionally, by comparing the antibiofilm activity to the antibacterial activity and the antibacterial activity to the cytotoxicity, selectivity indices were used to assess the preferential activity of the compounds."}, "[5]": {"tested_on": "African green monkey kidney (Vero) cell line", "experiment": "Cytotoxicity, Presto Blue cell viability", "type": "cell-based", "details": "selective index, IC50 (Vero)/MIC against Mycobacterium smegmatis", "protocol": "as §1, §2, §3"}}, "data": [{"smiles": "O=C(O)c1cn(C2CC2)c2cc(N3CCNCC3)c(F)cc2c1=O", "note": "[Ciprofloxacin, reference compound]", "values": [{"measurement": "M. smeg BSI (MIC/MBIC)", "setting": "[1]", "value": 2}]}, {"smiles": "Oc1cccc2cccnc12", "note": "[HQ‐1, 8‐hydroxyquinoline, reference compound]", "values": [{"measurement": "MRSA BSI (MIC/MBIC)", "setting": "[2]", "value": 1}, {"measurement": "fold increase in antibacterial activity against MRSA", "setting": "[3]", "value": 2, "unit": "fold"}, {"measurement": "U937 SI", "setting": "[4]", "value": 10.5}, {"measurement": "Vero SI", "setting": "[5]", "value": 15.3}, {"measurement": "M. smeg BSI (MIC/MBIC)", "setting": "[1]", "value": 1}]}, {"smiles": "Cc1ccc2c(Cl)cc(Cl)c(O)c2n1", "note": "[HQ‐2, 5,7‐dichloro‐8‐hydroxy‐2‐methylquinoline, reference compound]", "values": [{"measurement": "MRSA BSI (MIC/MBIC)", "setting": "[2]", "value": 0.03}, {"measurement": "fold increase in antibacterial activity against MRSA", "setting": "[3]", "value": 2, "unit": "fold"}, {"measurement": "U937 SI", "setting": "[4]", "value": 1.7}, {"measurement": "Vero SI", "setting": "[5]", "value": 53.1}, {"measurement": "M. smeg BSI (MIC/MBIC)", "setting": "[1]", "value": 0.5}]}, {"smiles": "Cc1ccc2cccc(O)c2n1", "note": "[HQ‐3, 2‐methyl‐8‐hydroxyquinoline, reference compound]", "values": [{"measurement": "MRSA BSI (MIC/MBIC)", "setting": "[2]", "value": 0.5}, {"measurement": "M. smeg BSI (MIC/MBIC)", "setting": "[1]", "value": 1}]}, {"smiles": "O=Cc1ccc2cccc(O)c2n1", "note": "[HQ‐4, 8‐hydroxyquinoline‐2‐carbaldehyde, reference compound]", "values": [{"measurement": "MRSA BSI (MIC/MBIC)", "setting": "[2]", "value": 0.5}, {"measurement": "fold increase in antibacterial activity against MRSA", "setting": "[3]", "value": 2, "unit": "fold"}, {"measurement": "U937 SI", "setting": "[4]", "value": 0.05}]}, {"smiles": "CCCCCOc1cccc2cccnc12", "note": "[QD‐1]", "values": [{"measurement": "MRSA BSI (MIC/MBIC)", "setting": "[2]", "value": 1}]}, {"smiles": "CC(C)CCOc1cccc2cccnc12", "note": "[QD‐2]", "values": [{"measurement": "MRSA BSI (MIC/MBIC)", "setting": "[2]", "value": 1}]}, {"smiles": "CC(C)=CCOc1cccc2cccnc12", "note": "[QD‐3]", "values": [{"measurement": "MRSA BSI (MIC/MBIC)", "setting": "[2]", "value": 0.5}, {"measurement": "U937 SI", "setting": "[4]", "value": 0.8}, {"measurement": "M. smeg BSI (MIC/MBIC)", "setting": "[1]", "value": 1}]}, {"smiles": "Cc1ccc2cccc(OCCC(C)C)c2n1", "note": "[QD‐8]", "values": [{"measurement": "M. smeg BSI (MIC/MBIC)", "setting": "[1]", "value": 1}]}, {"smiles": "CCCCCOC(=O)c1ccc2cccc(OCCCCC)c2n1", "note": "[QD‐10, pentyl 8‐(pentyloxy)quinoline‐2‐carboxylate]", "values": [{"measurement": "U937 SI", "setting": "[4]", "value": 0.7}, {"measurement": "Vero SI", "setting": "[5]", "value": 0.8}]}, {"smiles": "CC(C)CCOC(=O)c1ccc2cccc(OCCC(C)C)c2n1", "note": "[QD‐11, isopentyl 8‐(isopentyloxy)quinoline‐2‐carboxylate]", "values": [{"measurement": "Vero SI", "setting": "[5]", "value": 0.7}]}, {"smiles": "CC(C)=CCOc1cccc2ccc(C=O)nc12", "note": "[QD‐12]", "values": [{"measurement": "MRSA BSI (MIC/MBIC)", "setting": "[2]", "value": 0.5}, {"measurement": "fold increase in antibacterial activity against MRSA", "setting": "[3]", "value": "up to 2 fold"}, {"measurement": "U937 SI", "setting": "[4]", "value": 1}, {"measurement": "Vero SI", "setting": "[5]", "value": 1}, {"measurement": "M. smeg BSI (MIC/MBIC)", "setting": "[1]", "value": "~8"}]}]}
